Source: the supplement of paper PMC11732987, “Enantioselective OTUD7B fragment discovery through chemoproteomics screening and high-throughput optimisation” (Communications Chemistry, 2025)
The other results are listed elsewhere or left out. The data scatter; read single values as rough.

Protein sequences, listed by entry. Tags and fused reporters are not part of them. Lines headed by an entry give the natural chain unless they say otherwise; changes in a name come on top. Residues count along the entry.
UniProt P63010: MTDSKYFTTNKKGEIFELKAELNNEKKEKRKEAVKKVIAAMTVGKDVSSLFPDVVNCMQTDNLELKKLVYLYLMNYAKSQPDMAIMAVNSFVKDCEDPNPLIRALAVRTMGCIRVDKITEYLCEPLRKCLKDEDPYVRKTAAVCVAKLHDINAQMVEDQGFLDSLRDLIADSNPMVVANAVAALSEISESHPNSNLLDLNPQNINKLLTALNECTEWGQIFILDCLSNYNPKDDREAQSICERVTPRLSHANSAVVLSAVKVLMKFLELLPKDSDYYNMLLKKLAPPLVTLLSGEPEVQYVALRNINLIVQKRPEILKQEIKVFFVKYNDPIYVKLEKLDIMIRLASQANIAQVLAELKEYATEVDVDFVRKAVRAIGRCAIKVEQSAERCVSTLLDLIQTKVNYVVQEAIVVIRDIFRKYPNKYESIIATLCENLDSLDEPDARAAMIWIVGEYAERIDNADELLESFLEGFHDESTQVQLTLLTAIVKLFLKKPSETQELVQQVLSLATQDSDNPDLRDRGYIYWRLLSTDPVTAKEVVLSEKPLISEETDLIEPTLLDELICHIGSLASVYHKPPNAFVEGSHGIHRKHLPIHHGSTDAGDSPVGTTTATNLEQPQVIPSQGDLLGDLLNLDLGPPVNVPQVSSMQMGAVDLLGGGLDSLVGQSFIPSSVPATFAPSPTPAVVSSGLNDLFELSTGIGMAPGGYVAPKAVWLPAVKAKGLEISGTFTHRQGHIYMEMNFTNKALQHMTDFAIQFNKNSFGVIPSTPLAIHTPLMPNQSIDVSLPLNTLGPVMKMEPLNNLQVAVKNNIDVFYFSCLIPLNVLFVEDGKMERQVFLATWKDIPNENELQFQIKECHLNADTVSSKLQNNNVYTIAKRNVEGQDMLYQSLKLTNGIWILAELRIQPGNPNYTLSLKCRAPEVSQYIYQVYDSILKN
UniProt Q9NZN5: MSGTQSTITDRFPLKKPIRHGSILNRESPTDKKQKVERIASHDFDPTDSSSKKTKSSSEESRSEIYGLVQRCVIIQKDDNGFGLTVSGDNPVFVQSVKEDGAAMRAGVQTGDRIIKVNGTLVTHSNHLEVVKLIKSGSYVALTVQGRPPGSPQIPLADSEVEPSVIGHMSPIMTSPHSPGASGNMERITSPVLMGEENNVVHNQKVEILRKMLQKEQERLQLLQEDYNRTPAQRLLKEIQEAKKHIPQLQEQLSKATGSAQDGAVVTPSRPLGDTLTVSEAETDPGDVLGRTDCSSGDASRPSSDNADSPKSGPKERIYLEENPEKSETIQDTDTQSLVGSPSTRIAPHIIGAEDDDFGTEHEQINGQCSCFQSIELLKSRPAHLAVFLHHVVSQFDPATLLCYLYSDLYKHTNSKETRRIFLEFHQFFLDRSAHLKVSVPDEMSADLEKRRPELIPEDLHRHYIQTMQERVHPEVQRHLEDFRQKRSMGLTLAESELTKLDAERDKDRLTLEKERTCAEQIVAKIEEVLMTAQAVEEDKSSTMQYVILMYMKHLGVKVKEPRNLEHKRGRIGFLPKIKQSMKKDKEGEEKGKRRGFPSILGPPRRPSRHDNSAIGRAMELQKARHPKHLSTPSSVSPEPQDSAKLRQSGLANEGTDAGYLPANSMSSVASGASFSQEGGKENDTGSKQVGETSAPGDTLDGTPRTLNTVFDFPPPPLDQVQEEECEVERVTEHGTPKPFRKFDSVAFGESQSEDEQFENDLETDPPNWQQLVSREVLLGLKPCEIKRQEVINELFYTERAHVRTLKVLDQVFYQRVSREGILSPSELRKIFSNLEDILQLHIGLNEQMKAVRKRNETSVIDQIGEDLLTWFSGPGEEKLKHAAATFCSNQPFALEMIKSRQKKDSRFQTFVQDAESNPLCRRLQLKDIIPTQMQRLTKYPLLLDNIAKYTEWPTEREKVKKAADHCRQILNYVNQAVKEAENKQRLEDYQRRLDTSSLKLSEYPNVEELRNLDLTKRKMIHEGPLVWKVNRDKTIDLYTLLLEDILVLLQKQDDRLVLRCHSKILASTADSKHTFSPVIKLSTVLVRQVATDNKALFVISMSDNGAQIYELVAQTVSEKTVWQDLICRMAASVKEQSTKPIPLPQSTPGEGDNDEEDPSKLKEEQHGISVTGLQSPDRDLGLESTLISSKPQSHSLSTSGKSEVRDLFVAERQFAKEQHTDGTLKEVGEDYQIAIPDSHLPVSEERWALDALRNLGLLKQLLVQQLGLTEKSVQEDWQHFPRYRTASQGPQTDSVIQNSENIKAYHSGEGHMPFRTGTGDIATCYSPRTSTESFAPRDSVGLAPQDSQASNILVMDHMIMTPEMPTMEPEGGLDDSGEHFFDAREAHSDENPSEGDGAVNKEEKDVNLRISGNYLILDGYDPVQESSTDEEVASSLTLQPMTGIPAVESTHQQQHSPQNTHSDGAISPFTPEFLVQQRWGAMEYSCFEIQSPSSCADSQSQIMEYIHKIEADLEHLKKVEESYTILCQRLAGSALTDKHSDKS
UniProt Q9H2C2, 14-33: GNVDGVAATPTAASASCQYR
UniProt Q3SXY8, 132-151: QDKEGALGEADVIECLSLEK
UniProt Q9Y6D6: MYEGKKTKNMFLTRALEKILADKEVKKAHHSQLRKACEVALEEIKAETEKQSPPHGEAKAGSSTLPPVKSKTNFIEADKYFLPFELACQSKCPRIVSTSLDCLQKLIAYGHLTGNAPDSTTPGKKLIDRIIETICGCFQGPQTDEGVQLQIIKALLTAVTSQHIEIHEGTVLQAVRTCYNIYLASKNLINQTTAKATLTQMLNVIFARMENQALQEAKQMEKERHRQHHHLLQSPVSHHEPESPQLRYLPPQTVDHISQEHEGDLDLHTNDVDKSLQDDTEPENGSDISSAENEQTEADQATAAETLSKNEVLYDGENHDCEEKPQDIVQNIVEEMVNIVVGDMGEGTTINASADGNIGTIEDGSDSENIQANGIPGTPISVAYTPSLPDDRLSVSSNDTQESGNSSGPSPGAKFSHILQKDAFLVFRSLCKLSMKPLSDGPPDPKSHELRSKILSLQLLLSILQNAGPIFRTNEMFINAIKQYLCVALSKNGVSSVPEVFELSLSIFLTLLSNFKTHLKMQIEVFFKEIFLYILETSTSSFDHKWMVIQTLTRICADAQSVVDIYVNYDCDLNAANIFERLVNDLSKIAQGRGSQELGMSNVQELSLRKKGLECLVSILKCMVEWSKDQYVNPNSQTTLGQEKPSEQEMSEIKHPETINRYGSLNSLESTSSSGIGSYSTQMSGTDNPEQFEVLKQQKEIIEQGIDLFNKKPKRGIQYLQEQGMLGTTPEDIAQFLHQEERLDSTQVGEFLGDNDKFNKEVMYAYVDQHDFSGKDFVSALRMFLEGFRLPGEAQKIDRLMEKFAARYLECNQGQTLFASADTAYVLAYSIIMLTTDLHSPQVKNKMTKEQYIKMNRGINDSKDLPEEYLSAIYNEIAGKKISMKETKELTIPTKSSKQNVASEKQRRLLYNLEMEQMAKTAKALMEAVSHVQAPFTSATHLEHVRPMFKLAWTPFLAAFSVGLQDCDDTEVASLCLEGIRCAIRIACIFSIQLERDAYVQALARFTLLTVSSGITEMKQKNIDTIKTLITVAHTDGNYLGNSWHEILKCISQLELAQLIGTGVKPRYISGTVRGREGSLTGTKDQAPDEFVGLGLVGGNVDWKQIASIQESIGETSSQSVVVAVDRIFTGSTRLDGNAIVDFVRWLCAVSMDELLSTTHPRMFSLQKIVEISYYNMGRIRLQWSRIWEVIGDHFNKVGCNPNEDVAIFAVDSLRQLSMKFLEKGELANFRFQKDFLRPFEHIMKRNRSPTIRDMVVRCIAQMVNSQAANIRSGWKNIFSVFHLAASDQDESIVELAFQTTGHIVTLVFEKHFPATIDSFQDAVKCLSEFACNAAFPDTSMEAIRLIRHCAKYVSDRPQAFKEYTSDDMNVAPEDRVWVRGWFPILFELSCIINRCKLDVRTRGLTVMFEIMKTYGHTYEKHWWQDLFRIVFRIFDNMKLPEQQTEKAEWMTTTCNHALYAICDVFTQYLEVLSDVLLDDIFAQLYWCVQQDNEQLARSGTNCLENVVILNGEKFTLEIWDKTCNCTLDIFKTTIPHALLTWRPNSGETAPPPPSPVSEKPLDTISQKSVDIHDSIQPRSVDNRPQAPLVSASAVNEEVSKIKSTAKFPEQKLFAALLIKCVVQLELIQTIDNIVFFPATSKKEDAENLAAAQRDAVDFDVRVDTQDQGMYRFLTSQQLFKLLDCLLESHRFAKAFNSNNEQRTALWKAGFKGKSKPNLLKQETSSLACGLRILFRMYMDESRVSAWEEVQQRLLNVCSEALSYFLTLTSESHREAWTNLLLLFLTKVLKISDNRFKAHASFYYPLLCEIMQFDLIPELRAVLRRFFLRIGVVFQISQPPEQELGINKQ
UniProt O95782: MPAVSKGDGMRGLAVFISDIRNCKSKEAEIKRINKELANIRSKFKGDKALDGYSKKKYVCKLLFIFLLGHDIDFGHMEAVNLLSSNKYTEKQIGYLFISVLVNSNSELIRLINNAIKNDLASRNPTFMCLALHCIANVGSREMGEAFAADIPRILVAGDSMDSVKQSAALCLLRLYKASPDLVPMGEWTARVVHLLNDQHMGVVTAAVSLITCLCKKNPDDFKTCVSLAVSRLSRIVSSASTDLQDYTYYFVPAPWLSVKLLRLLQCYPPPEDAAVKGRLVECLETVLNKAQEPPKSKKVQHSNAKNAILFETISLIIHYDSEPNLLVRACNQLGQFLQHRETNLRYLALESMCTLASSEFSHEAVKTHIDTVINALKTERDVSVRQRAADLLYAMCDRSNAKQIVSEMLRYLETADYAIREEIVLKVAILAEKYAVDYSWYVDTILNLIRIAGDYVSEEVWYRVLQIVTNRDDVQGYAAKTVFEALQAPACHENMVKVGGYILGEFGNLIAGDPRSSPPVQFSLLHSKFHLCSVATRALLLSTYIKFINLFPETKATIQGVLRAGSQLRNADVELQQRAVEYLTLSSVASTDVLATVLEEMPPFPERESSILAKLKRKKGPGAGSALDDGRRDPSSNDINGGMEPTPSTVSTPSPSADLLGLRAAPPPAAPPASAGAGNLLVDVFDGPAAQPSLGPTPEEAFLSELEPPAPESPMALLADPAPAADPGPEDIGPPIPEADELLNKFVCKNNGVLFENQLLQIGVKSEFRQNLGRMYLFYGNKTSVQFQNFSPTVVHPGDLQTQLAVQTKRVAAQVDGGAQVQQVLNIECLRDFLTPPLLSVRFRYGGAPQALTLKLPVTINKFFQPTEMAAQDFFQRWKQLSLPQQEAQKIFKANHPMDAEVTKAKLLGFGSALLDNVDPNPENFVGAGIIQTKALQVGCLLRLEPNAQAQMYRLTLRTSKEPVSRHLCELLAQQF
UniProt Q9NWX5, 135-156: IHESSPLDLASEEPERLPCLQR
UniProt Q92625: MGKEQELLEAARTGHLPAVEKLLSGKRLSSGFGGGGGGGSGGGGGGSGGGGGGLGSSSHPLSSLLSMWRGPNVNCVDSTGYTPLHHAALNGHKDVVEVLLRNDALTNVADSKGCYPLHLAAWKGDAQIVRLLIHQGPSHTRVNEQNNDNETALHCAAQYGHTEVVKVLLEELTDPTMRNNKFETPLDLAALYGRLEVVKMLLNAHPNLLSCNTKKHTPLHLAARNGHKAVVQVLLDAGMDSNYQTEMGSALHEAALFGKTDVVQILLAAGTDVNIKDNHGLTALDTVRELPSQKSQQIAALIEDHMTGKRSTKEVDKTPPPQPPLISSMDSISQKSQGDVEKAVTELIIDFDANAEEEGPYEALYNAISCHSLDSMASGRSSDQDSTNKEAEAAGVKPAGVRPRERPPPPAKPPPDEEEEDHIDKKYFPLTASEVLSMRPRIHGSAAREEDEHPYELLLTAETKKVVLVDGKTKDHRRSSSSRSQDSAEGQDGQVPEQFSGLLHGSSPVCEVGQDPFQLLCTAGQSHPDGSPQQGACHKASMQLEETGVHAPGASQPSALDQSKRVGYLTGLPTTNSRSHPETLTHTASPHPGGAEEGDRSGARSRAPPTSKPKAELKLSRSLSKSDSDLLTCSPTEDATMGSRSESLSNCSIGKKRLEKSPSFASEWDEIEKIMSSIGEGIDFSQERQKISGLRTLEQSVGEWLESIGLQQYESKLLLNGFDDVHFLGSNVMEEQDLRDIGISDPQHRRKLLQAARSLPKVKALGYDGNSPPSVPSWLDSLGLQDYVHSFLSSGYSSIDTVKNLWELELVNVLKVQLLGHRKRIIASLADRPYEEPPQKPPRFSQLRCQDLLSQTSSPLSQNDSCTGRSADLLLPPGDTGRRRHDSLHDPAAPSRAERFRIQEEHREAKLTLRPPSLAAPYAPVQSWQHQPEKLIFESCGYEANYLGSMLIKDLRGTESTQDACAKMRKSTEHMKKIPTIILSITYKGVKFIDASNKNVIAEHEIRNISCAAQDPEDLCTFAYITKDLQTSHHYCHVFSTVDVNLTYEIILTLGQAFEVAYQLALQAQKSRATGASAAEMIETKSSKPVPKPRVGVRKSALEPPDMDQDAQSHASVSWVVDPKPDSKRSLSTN

Columns and labels:
[1] = compound: ClCC(=O)N[C@@H]1CCCc2ccccc12; experiment: log2 mean competition ratio of IA-DTB cysteine labelling (DMSO/compound) (log2 ratio); higher = stronger cysteine engagement by compound; settings: treatment time: 4 h, cell line lysate: HEK293T
Experimental: (§1)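 IA-DTB competitive cysteine chemoproteomics in HEK293T RIPA lysate. Lysates were treated with compound 29 or 30 at 50 or 200 µM for 4 h, then IA-DTB (500 µM, 1 h), trypsin-digested, NeutrAvidin-enriched and analysed by diaPASEF. Competition ratio = intensity DMSO / intensity compound (n=4 treated, n=64 DMSO); binding: mean log2 CR ≥ 1 and p ≤ 0.05 plus QC filters. Target is the cysteine site.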

[2] = compound: ClCC(=O)N[C@H]1CCCc2ccccc12; experiment: as above; settings: treatment time: 4 h, cell line lysate: HEK293T
Experimental: as §1

| Target | log2 mean competition ratio ([1]; 50 µM) | log2 mean competition ratio ([1]; 200 µM) | log2 mean competition ratio ([2]; 50 µM) | log2 mean competition ratio ([2]; 200 µM) |
| --- | --- | --- | --- | --- |
| ASMTL C274 (UniProt O95671) | -0.213 | -0.0538 | – | – |
| ANXA7 C285 (UniProt P20073) | -0.0234 | 0.103 | – | – |
| AP2B1 C123 (UniProt P63010) | -0.116 | 0.0237 | – | – |
| AP1S1 C47 (UniProt P61966) | 0.461 | -0.0288 | – | – |
| ANKRD17 C2063 (UniProt O75179) | -0.0238 | -0.0576 | – | – |
| AP3B1 C507 (UniProt O00203) | -0.148 | 0.167 | – | – |
| ARCN1 C286 (UniProt P48444) | -0.148 | -0.0577 | – | – |
| ARHGEF6 C553 (UniProt Q15052) | 0.447 | 0.253 | – | – |
| ARHGEF12 C1528 (UniProt Q9NZN5) | 0.615 | 0.357 | – | – |
| ARHGEF17 C231 | 0.525 | 0.276 | – | – |
| AP2B1 C391 (UniProt P63010) | 0.0761 | -0.337 | – | – |
| ANKMY2 C205 (UniProt Q8IV38) | -0.111 | 0.15 | – | – |
| ARHGEF12 C1128 (UniProt Q9NZN5) | -0.144 | 0.0794 | – | – |
| ARHGAP35 C924 (UniProt Q9NRY4) | 0.304 | -0.267 | – | – |
| ARV1 C30 (UniProt Q9H2C2) | -0.0108 | -0.0491 | – | – |
| ARIH2 C340 (UniProt O95376) | -0.231 | 0.144 | – | – |
| ARRB1 C140 (UniProt P49407) | -0.312 | -0.257 | – | – |
| ARMC6 C435 (UniProt Q6NXE6) | -0.197 | 0.558 | – | – |
| AS3MT C32 | 0.0123 | 0.0707 | – | – |
| ARHGEF26 C533 | 0.0301 | -0.07 | – | – |

| Target | log2 mean competition ratio ([1]; 50 µM) | log2 mean competition ratio ([1]; 200 µM) | log2 mean competition ratio ([2]; 50 µM) | log2 mean competition ratio ([2]; 200 µM) |
| --- | --- | --- | --- | --- |
| ARFGEF2 C1450 (UniProt Q9Y6D5) | 0.0216 | 0.00509 | – | – |
| AP5S1 C21 (UniProt Q9NUS5) | -0.0556 | 0.0572 | – | – |
| ARL13B C146 (UniProt Q3SXY8) | -0.236 | 0.549 | – | – |
| ARFGEF1 C1729 (UniProt Q9Y6D6) | 0.00144 | 0.15 | – | – |
| ANXA2 C133 | -0.139 | -0.0756 | – | – |
| ARHGEF7 C721 (UniProt Q14155) | 0.0567 | -0.00835 | – | – |
| ARHGEF17 C1479 | -0.155 | 0.193 | – | – |
| ARL6 C22 (UniProt Q9H0F7) | 0.21 | 0.00514 | – | – |
| ANKRD27 C882 (UniProt Q96NW4) | -0.0929 | 0.251 | – | – |
| AP2A1 C171 (UniProt O95782) | 0.294 | 0.205 | – | – |
| ARHGAP11A C791 (UniProt Q6P4F7) | -0.342 | -0.0833 | – | – |
| ANKRD54 C230 (UniProt Q6NXT1) | 0.252 | 0.362 | – | – |
| ARFRP1 C154 (UniProt Q13795) | -0.199 | 0.26 | – | – |
| ASH1L C157 | -0.425 | 0.278 | – | – |
| ASCC1 C189 (UniProt Q8N9N2) | -0.322 | 0.078 | – | – |
| ANO6 C261 (UniProt Q4KMQ2) | -0.612 | 0.753 | – | – |
| ARAF C144 (UniProt P10398) | 0.174 | 0.026 | – | – |
| ASB6 C153 (UniProt Q9NWX5) | 0.0932 | 0.789 | 0.0529 | 0.769 |
| APAF1 C450 (UniProt O14727) | 0.285 | -0.165 | – | – |
| ARAF C549 (UniProt P10398) | 0.0292 | 0.122 | – | – |

| Target | log2 mean competition ratio ([1]; 50 µM) | log2 mean competition ratio ([1]; 200 µM) | log2 mean competition ratio ([2]; 50 µM) | log2 mean competition ratio ([2]; 200 µM) |
| --- | --- | --- | --- | --- |
| AP2A1 C267 (UniProt O95782) | 0.271 | 0.0636 | – | -0.0382 |
| APC C995 (UniProt P25054) | 0.355 | -0.0185 | – | – |
| ARAP1 C900 (UniProt Q96P48) | -0.238 | 0.129 | – | – |
| ARHGEF18 C918 (UniProt Q6ZSZ5) | 0.165 | 0.204 | – | – |
| ANKMY2 C62 (UniProt Q8IV38) | 0.264 | -0.145 | – | – |
| ARFGEF1 C37 (UniProt Q9Y6D6) | -0.196 | 0.26 | – | – |
| AP4M1 C235 (UniProt O00189) | -0.114 | 0.0724 | – | – |
| ANKRD26 C735 (UniProt Q9UPS8) | 0.0617 | 0.0705 | – | – |
| ARL6 C148 (UniProt Q9H0F7) | 0.304 | 0.319 | – | – |
| ANKLE2 C254 (UniProt Q86XL3) | 0.0789 | 0.0222 | -0.0174 | 0.0323 |
| AP2B1 C129 (UniProt P63010) | 0.441 | 0.202 | 0.183 | 0.163 |
| APEX1 C93 (UniProt P27695) | -0.222 | 0.0412 | -0.27 | -0.0206 |
| ANKRD16 C194 (UniProt Q6P6B7) | 0.244 | -0.112 | – | – |
| ARHGEF40 C1148 (UniProt Q8TER5) | 0.299 | 0.00774 | – | – |
| ARHGEF12 C1325 (UniProt Q9NZN5) | -0.014 | -0.0182 | 0.0175 | -0.118 |
| ANXA11 C294 (UniProt P50995) | 0.0548 | 0.332 | – | – |
| ANKRD28 C85 (UniProt O15084) | -0.109 | -0.397 | – | – |
| ANKS1A C965 (UniProt Q92625) | -0.198 | -0.0902 | -0.157 | 0.0915 |

An excerpt of these results, with tabs.
Target	log2 mean competition ratio ([1]; 50 µM)	log2 mean competition ratio ([1]; 200 µM)	log2 mean competition ratio ([2]; 50 µM)	log2 mean competition ratio ([2]; 200 µM)
AP2A1 C267 (UniProt O95782)	0.271	0.0636	–	-0.0382
ARFGEF1 C37 (UniProt Q9Y6D6)	-0.196	0.26	–	–
